Experimental data as given in publication PMC11226663.
Results are given in words; binding and its absence hold for the method and conditions named. Binding seen in cells or lysates may run through a third protein. Some entries that bind do so weakly or less than the wild type. Where a sequence is shown, tags or fusion partners need not be part of it.

What was measured:
[1] = target: T1, GST-tagged RNF214 truncation, amino acids 207–410 (contains the CC domain) (human) (UniProt Q8ND24); assay: pull-down; HEK293T cells co-transfected with GST-fusion and Venus-fusion plasmids (1 μg each), 48 h; cleared lysate on GST-tag Purification Resin at 4 °C overnight, eight washes with cell lysis buffer, western blot for GST and Venus tags
T1 sequence: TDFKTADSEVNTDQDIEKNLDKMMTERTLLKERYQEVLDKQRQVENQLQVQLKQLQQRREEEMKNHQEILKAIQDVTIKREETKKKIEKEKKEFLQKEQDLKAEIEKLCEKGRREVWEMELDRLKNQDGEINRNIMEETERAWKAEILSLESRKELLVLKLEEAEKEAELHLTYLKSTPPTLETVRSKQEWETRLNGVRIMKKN

[2] = target: T2, GST-tagged RNF214 truncation, amino acids 658–703 (RING finger domain) (human) (UniProt Q8ND24); assay: as above
T2 sequence: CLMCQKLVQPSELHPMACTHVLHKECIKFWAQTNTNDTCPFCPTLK

For “Venus-RNF214 (RING finger protein 214, full length) (from UniProt Q8ND24 1-703)”, the binding [1] was “binds” and the binding [2] was “no binding”.
